Source: PubChem BioAssay AID1259405 (NCATS, 2018)

- Aim: 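Mouse-designed siRNAs used to find CHO productivity engineering targets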 (primary screen)
- Cell system: Chinese hamster CHO-K1 ovary cells with stable secreted eGFP expression
- Reagent: single siRNA against mouse genes, 0.8 pmol siRNA per well (2 µl of 400 nM stock)
- Timing: 3 days
- Measured: 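Percent of the per-plate non-targeting control median for intracellular GFP per well by laser scanning cytometry and for cell viability by ATP luminescence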
- Reading the numbers: GFP, % of control: higher = more GFP per well, higher productivity; viability (ATP), % of control: higher = more viable cells (more ATP)
- Rule for the call: 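a knock-down is called active if GFP reaches 120% or more of non-targeting control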
Shown is a random part of about 50,000 reagents tested. Of all reagents, about 4,000 (8%) are marked active. 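Mouse siRNA library applied to hamster cells; one well for each siRNA.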 A number with no mark means an inactive call. Reagents against one gene are numbered here.

| GFP, % of control | viability (ATP), % of control | Gene | reagent |
| --- | --- | --- | --- |
| 81.1 | 85.4 | Senp2 | 1 |
| 62.8 | 56.9 | Senp2 | 2 |
| 64.5 | 67 | Senp2 | 3 |
| 160 (active) | 84.7 | Ret | 1 |
| 101 | 85.7 | Ret | 2 |
| 51.1 | 49.4 | Ret | 3 |
| 36.4 | 30.4 | Or5p59 | 1 |
| 96.9 | 26.5 | Or5p59 | 2 |
| 98.3 | 86.3 | Or5p59 | 3 |
| 71.5 | 74.3 | Got1 | 1 |
| 88.8 | 94 | Got1 | 2 |
| 101 | 84.9 | Got1 | 3 |
| 126 (active) | 110 | Tiam1 | 1 |
| 92.9 | 55.8 | Tiam1 | 2 |
| 94.5 | 59.6 | Tiam1 | 3 |
| 122 (active) | 84.8 | Svs6 | 1 |
| 87.8 | 87.4 | Svs6 | 2 |
| 92.9 | 109 | Svs6 | 3 |
| 117 | 116 | Cd302 | 1 |
| 62.9 | 73.7 | Cd302 | 2 |
| 99.3 | 87.8 | Cd302 | 3 |
| 106 | 99.7 | Kcnmb1 | 1 |
| 80.6 | 92.9 | Kcnmb1 | 2 |
| 97.6 | 72.9 | Kcnmb1 | 3 |
| 78.4 | 60.1 | Taf12 | 1 |
| 75.2 | 99.7 | Taf12 | 2 |
| 129 (active) | 125 | Taf12 | 3 |
| 57 | 74.3 | Mos | 1 |
| 60.1 | 82.2 | Acvr1 | 1 |
| 46.6 | 77.5 | Lefty1 | 1 |
| 161 (active) | 90.3 | Lefty1 | 2 |
| 78.2 | 81 | Lefty1 | 3 |
| 53.8 | 43.6 | Hes7 | 1 |
| 81.8 | 71.9 | Hes7 | 2 |
| 91.1 | 92.4 | Hes7 | 3 |
| 84.5 | 107 | Cpne3 | 1 |
| 44.9 | 53.8 | Cpne3 | 2 |
| 75 | 73.4 | Thumpd1 | 1 |
| 81.2 | 88 | Thumpd1 | 2 |
| 61.1 | 51.3 | Thumpd1 | 3 |
| 50.5 | 76 | Otulin | 1 |
| 77.6 | 90.4 | Otulin | 2 |
| 70.5 | 108 | Otulin | 3 |
| 123 (active) | 85.1 | Pmm1 | 1 |
| 73 | 70 | Pmm1 | 2 |
| 85.9 | 80.8 | Pmm1 | 3 |
| 69.5 | 38.3 | Mtor | 1 |
| 73.7 | 72.6 | Pafah2 | 1 |
| 103 | 71.8 | Pafah2 | 2 |
| 82.8 | 87.9 | A630001G21Rik | 1 |
| 100 | 90.1 | A630001G21Rik | 2 |
| 62 | 70.3 | A630001G21Rik | 3 |
| 34.9 | 34.2 | Slc67a2 | 1 |
| 87.5 | 98.5 | Slc67a2 | 2 |
| 101 | 91.9 | Slc67a2 | 3 |
| 144 (active) | 86.2 | Rttn | 1 |
| 86.9 | 89.4 | Rttn | 2 |
| 79 | 69 | Rttn | 3 |
| 75.8 | 72 | Mcrip2 | 1 |
| 86.4 | 48.9 | Mcrip2 | 2 |
| 73.6 | 75.5 | Mcrip2 | 3 |
| 92.4 | 130 | Tmem176a | 1 |
| 101 | 95.2 | Tmem176a | 2 |
| 192 (active) | 98.8 | Tmem176a | 3 |
| 73.8 | 86.1 | Hmgcs1 | 1 |
| 60.5 | 72.1 | Hmgcs1 | 2 |
| 51.2 | 66.1 | Hmgcs1 | 3 |
| 57.9 | 88.1 | Gatm | 1 |
| 81.1 | 124 | Gatm | 2 |
| 58.2 | 99.8 | Gatm | 3 |
| 117 | 60.1 | Banp | 1 |
| 35.5 | 63.4 | Banp | 2 |
| 99.9 | 111 | Banp | 3 |
| 68.1 | 66.4 | Tex12 | 1 |
| 67.4 | 106 | Tex12 | 2 |
| 113 | 98.8 | Tex12 | 3 |
| 99.7 | 85.9 | Mat2b | 1 |
| 72.9 | 57.8 | Mat2b | 2 |
| 50.2 | 75.8 | Mat2b | 3 |
| 69.8 | 67.2 | Zfand2a | 1 |
| 79.4 | 98.1 | Zfand2a | 2 |
| 36.9 | 49.2 | Zfand2a | 3 |
| 73.5 | 63.6 | H2-M10.2 | 1 |
| 104 | 74.2 | H2-M10.2 | 2 |
| 90.1 | 83.2 | H2-M10.2 | 3 |
| 57.3 | 53.6 | Slc7a4 | 1 |
| 45.4 | 42 | Slc7a4 | 2 |
| 79.8 | 93.5 | Slc7a4 | 3 |
| 48.9 | 63.4 | Serpina3b | 1 |
| 112 | 78.4 | Serpina3b | 2 |
| 93.7 | 92.9 | Serpina3b | 3 |
| 133 (active) | 113 | Toporsl | 1 |
| 103 | 55 | Toporsl | 2 |
| 72.8 | 50.4 | Toporsl | 3 |
| 123 (active) | 81.7 | Polrmt | 1 |
| 89.1 | 101 | Polrmt | 2 |
| 92.7 | 84.9 | Med27 | 1 |
| 103 | 67.6 | Med27 | 2 |
| 104 | 110 | Med27 | 3 |
| 87.3 | 54.3 | Mrgpra2b | 1 |
| 87.1 | 87.3 | Mrgpra2b | 2 |
| 51.1 | 59.6 | Mrgpra2b | 3 |
| 70 | 68.4 | Casq1 | 1 |
| 62.6 | 72.9 | Casq1 | 2 |
| 178 (active) | 81.9 | Cdk5 | 1 |
| 163 (active) | 84 | Cdk5 | 2 |
| 96.8 | 82.7 | Cdk5 | 3 |
| 128 (active) | 77.6 | Cdk5 | 4 |

Part of the list above, set out differently:
Taf12 #1 | GFP, % of control = 78.4; viability (ATP), % of control = 60.1
Taf12 #2 | GFP, % of control = 75.2; viability (ATP), % of control = 99.7
Taf12 #3 | GFP, % of control = 129 (active); viability (ATP), % of control = 125
Mos | GFP, % of control = 57; viability (ATP), % of control = 74.3
Acvr1 | GFP, % of control = 60.1; viability (ATP), % of control = 82.2
Lefty1 #1 | GFP, % of control = 46.6; viability (ATP), % of control = 77.5
Lefty1 #2 | GFP, % of control = 161 (active); viability (ATP), % of control = 90.3
Lefty1 #3 | GFP, % of control = 78.2; viability (ATP), % of control = 81
Hes7 #1 | GFP, % of control = 53.8; viability (ATP), % of control = 43.6
Hes7 #2 | GFP, % of control = 81.8; viability (ATP), % of control = 71.9
Hes7 #3 | GFP, % of control = 91.1; viability (ATP), % of control = 92.4
